# Source: PubChem BioAssay AID587 (National Center for Advancing Translational Sciences (NCATS), 2007)
# The whole screen tested about 59,000 compounds, of which about 35 (0.06%) were called active. Inconclusive results, whose numbers are uncertain, are shown with a selection of clear calls. Rule as the data show it: active = max dye-equivalent concentration above about 10 nM; inconclusive = between about 1.1 nM and that limit; inactive = weaker than that.
# Experiment: qHTS Assay for Spectroscopic Profiling in Texas Red Spectral Region
# Details: Compound fluorescence, Texas Red channel, 547/618 nm; hits give high values
# Outline: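 Spectral interference profiling: each compound concentration's relative fluorescence, read with a 547 nm excitation and 618 nm emission filter pair, was normalized to a per-plate Texas Red standard curve.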
row,Structure (SMILES),max dye-equivalent concentration
1,N#CC(C#N)=CNCCN1CCN(C=C(C#N)C#N)CC1,inconclusive: 1.1 nM
2,CC1(c2ccc3c(c2)OCO3)NC(=O)N(CC(=O)NCCC2=CCCCC2)C1=O (centres undefined),inconclusive: 1.4 nM
3,O=C(c1cnccn1)N1CCC[C@@]2(CCN(Cc3ccncc3)C2)C1,inactive
4,COCCSc1ccccc1C(=O)Nc1nccs1,inconclusive: 1.7 nM
5,CN1CCN(S(=O)(=O)c2cccc(C(=O)N(c3ccccn3)C3CCCCC3)c2)CC1,inconclusive: 1.1 nM
6,Cc1ccc(/C=N/n2c(C)nnc2C)s1,inconclusive: 1.1 nM
7,CC(=O)NCCNc1ncnc2ccc(-c3ccc4c(c3)OCO4)cc12,inconclusive: 1.4 nM
8,Cc1ccc(N2CCN(c3ccc(C)cc3)C(CC(=O)O)C2=O)cc1 (centres undefined),inconclusive: 1.2 nM
9,CSc1cccc(NC(=O)CSc2nnc(C)s2)c1,inconclusive: 1.4 nM
10,Nn1c(SCC(=O)NC(=O)NCc2ccccc2)nnc1C1CC1,inconclusive: 1.2 nM
11,Cc1ccc2cc(CCNC(=O)c3ccco3)c(=O)[nH]c2c1,inconclusive: 1.3 nM
12,COC(=O)c1ccccc1NC(=O)NCc1ccccn1,inconclusive: 1.3 nM
13,Cc1ncc([N+](=O)[O-])n1C[C@H](O)CCl,inconclusive: 1.7 nM
14,CCN(CCO)C1CC(=O)N(c2ccccc2C)C1=O (centres undefined),inconclusive: 1.5 nM
15,N[C@H](CS(=O)O)C(=O)O,inconclusive: 1.1 nM
16,CCOC(=O)C(CC)Sc1nc2c(c(=O)[nH]c(=O)n2C)n1C/C=C(/C)Cl (centres undefined),inconclusive: 1.7 nM
17,c1ccc(-c2nc3cnccn3c2Nc2ccc3c(c2)OCCO3)cc1,inconclusive: 1.5 nM
18,CC(C)(C)OC(=O)N1CCOCCOCCN(C(=O)OC(C)(C)C)CCOCC1,inconclusive: 1.2 nM
19,Fc1ccc(-c2nnc(SCc3ncc(-c4ccccc4)o3)n2CC2CCCO2)cc1 (centres undefined),inconclusive: 1.5 nM
20,COc1ccc(-c2cc(C(F)F)n3ncc(C(=O)NCC4CCCO4)c3n2)cc1 (centres undefined),inconclusive: 2 nM
21,CC(=O)c1sc2nc(=O)c(C)nn2c1C,inconclusive: 1.2 nM
22,CCOC(=O)CN(C(=O)CSc1nnc2c(n1)[nH]c1ccccc12)c1ccccc1,inconclusive: 1.1 nM
23,O=C(NCCC1=CCCCC1)c1ccc(F)c(S(=O)(=O)N2CCOCC2)c1,inconclusive: 1.5 nM
24,O=C1c2ccccc2C(=O)N1CCN1CCCCC1,inconclusive: 1.6 nM
25,CCOc1ccc(OCC)c(NC(=O)CSc2nc3c(c(=O)n(C)c(=O)n3C)n2C)c1,inconclusive: 1.6 nM
26,Fc1ccc(-c2noc(C3CCN(Cc4cccnc4)CC3)n2)cc1,inconclusive: 1.9 nM
27,CCc1c(C)nc2ncnn2c1NCCc1ccc(OC)c(OC)c1,inconclusive: 2.3 nM

row,Structure (SMILES),max dye-equivalent concentration
1,CC[C@@H](CS(=O)(=O)O)[N+](=O)[O-],inactive
2,COc1ccc(C(=O)Nc2ccc(S(=O)(=O)Nc3onc(C)c3C)cc2)cc1OC,inconclusive: 1.6 nM
3,NC(=O)c1ccc[n+]([C@@H]2O[C@H](COP(=O)([O-])OP(=O)(O)OC[C@H]3O[C@@H](n4cnc5c(N)ncnc54)[C@@H](O)[C@@H]3O)[C@@H](O)[C@@H]2O)c1,inconclusive: 1.3 nM
4,Cn1c(SCc2nc3ccccc3[nH]2)nnc1-c1cccs1,inconclusive: 1.6 nM
5,Cc1nnc(SCC(=O)NCc2ccco2)[nH]c1=O,inconclusive: 2.4 nM
6,CCc1ccccc1N(CC(=O)Nc1cccc(N(C)S(C)(=O)=O)c1)S(C)(=O)=O,inconclusive: 1.4 nM
7,c1ccc(-c2noc(CSc3nc4ccccc4o3)n2)cc1,inconclusive: 1.4 nM
8,COc1ccc(S(=O)(=O)N2CCC(C(=O)N3CCCC3)CC2)cc1Cl,inconclusive: 1.3 nM
9,Cc1nc2sc3c(c2c2nc(-c4ccco4)nn12)CC(C)(C)OC3,inconclusive: 1.2 nM
10,COC(=O)c1ccccc1NC(=O)c1ccccc1N(C)S(C)(=O)=O,inconclusive: 1.2 nM
11,CCCn1c2c(c(O)c(C(=O)Nc3nc(C)cs3)c1=O)CCCC2,inconclusive: 2.4 nM
12,COc1cc(C2Nc3ccc4ncccc4c3C3=C2C(=O)CCC3)cc(OC)c1O (centres undefined),inconclusive: 2.2 nM
13,Nc1ncnc2c1ncn2[C@@H]1O[C@@H](C(=O)NC2CC2)[C@H](O)[C@@H]1O,inconclusive: 1.2 nM
14,O=C(Nc1ccccc1)NC1(C(=O)N2CCN(c3ncccn3)CC2)CCCCC1,inconclusive: 2 nM
15,CCOc1ccc2c(c1)c1nnc(SCC(=O)N3CCC(C)CC3)nc1n2C,inconclusive: 3.5 nM
16,CSc1nsc(SCC(=O)NC2CCCCC2)n1,inconclusive: 1.5 nM
17,CCCOc1cccc(C(=O)N(Cc2cccs2)C2CCS(=O)(=O)C2)c1 (centres undefined),inconclusive: 1.1 nM
18,c1ccc(CCc2nn3c(C4COc5ccccc5O4)nnc3s2)cc1 (centres undefined),inconclusive: 1.4 nM
19,Nc1nc(SCC(=O)NCc2ccccc2)n[nH]1,inconclusive: 1.1 nM
20,CCNC(=O)C1CCN(S(=O)(=O)c2ccc(F)cc2)CC1,inconclusive: 1.2 nM
21,CCc1ccc2[nH]c(=O)c(CN(CCCN3CCOCC3)C(=O)Nc3cccc(Cl)c3)cc2c1,inconclusive: 1.3 nM
22,OC[C@@H]1O[C@@H](n2cnc3cncnc32)[C@@H](O)[C@H]1O,inconclusive: 1.1 nM
23,O=S(=O)(NC1CC2CCC1C2)c1ccc(Br)s1 (centres undefined),inconclusive: 1.4 nM
24,CCn1ccc(C(=O)Oc2ccc(C(C)C)cc2)n1,inconclusive: 1.9 nM
25,Cc1nc(N2CCCC2)c2nnn(Cc3ccccc3Cl)c2n1,inconclusive: 1.2 nM
26,CCOc1ccc(-n2c(=O)c3sccc3n(CC(=O)NCc3ccco3)c2=O)cc1,inconclusive: 2 nM
27,COC(=O)c1ccccc1NC(=O)NCc1ccc2c(c1)OCO2,inconclusive: 1.1 nM

# Fetched one by one from the list above:
row,Structure (SMILES),max dye-equivalent concentration
22,OC[C@@H]1O[C@@H](n2cnc3cncnc32)[C@@H](O)[C@H]1O,inconclusive: 1.1 nM
24,CCn1ccc(C(=O)Oc2ccc(C(C)C)cc2)n1,inconclusive: 1.9 nM
19,Nc1nc(SCC(=O)NCc2ccccc2)n[nH]1,inconclusive: 1.1 nM
20,CCNC(=O)C1CCN(S(=O)(=O)c2ccc(F)cc2)CC1,inconclusive: 1.2 nM
